Experimental data published in the supplement of paper PMC7661543.
± gives the standard deviation of the averaged measurements. Differences between knockout arms are mostly noise.

System: MDA-MB-231
Experiment: relative cell number vs DMSO control (72 h) (% of DMSO); higher = less growth inhibition (more cells)
Protocol: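 QMAP-Seq: a pool of 5 breast cancer cell lines (ZR-75-1, SKBR3, HCC-38, MDA-MB-231, BT-20), each carrying 12 doxycycline-inducible Cas9 sgRNA perturbations (11 knockouts plus non-targeting sgNT), was treated with compounds for 72 h at four 10-fold doses (10 nM-10 uM or 1 nM-1 uM range). Barcodes were amplified and sequenced, and cell number was interpolated from 293T spike-in standard curves. The result is expressed as % of the median of DMSO wells. Two biological replicates.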

[1] = sgRNA knockout: sgATF3, 1000 nM
[2] = sgRNA knockout: sgATF3, 10000 nM
[3] = sgRNA knockout: sgATF4, 1000 nM
[4] = sgRNA knockout: sgATF4, 10000 nM
[5] = sgRNA knockout: sgATF6, 1000 nM
[6] = sgRNA knockout: sgATF6, 10000 nM
[7] = sgRNA knockout: sgATG7, 1000 nM
[8] = sgRNA knockout: sgATG7, 10000 nM
[9] = sgRNA knockout: sgERN1, 1000 nM
[10] = sgRNA knockout: sgERN1, 10000 nM
[11] = sgRNA knockout: sgHSF1, 1000 nM
[12] = sgRNA knockout: sgHSF1, 10000 nM
[13] = sgRNA knockout: sgHSF2, 1000 nM
[14] = sgRNA knockout: sgHSF2, 10000 nM
[15] = sgRNA knockout: sgKEAP1, 100 nM
[16] = sgRNA knockout: sgKEAP1, 1000 nM
[17] = sgRNA knockout: sgKEAP1, 10000 nM
[18] = sgRNA knockout: sgNFE2L2, 10 nM
[19] = sgRNA knockout: sgNFE2L2, 100 nM
[20] = sgRNA knockout: sgNFE2L2, 1000 nM
[21] = sgRNA knockout: sgNFE2L2, 10000 nM
[22] = sgRNA knockout: sgSLC35F2, 10 nM
[23] = sgRNA knockout: sgSLC35F2, 100 nM
[24] = sgRNA knockout: sgSLC35F2, 1000 nM
[25] = sgRNA knockout: sgSLC35F2, 10000 nM
[26] = sgRNA knockout: sgXBP1, 1000 nM
[27] = sgRNA knockout: sgXBP1, 10000 nM

C[C@@H](Oc1cc(-c2cnn(C3CCNCC3)c2)cnc1N)c1c(Cl)ccc(F)c1Cl [Crizotinib]
relative cell number (sgRNA knockout: sgATF3, 10 nM): 74.87 ± 0.12
relative cell number (sgRNA knockout: sgATF3, 100 nM): 98.2 ± 14
relative cell number [1]: 56.9 ± 3.7
relative cell number [2]: 6.4 ± 0.73
relative cell number (sgRNA knockout: sgATF4, 10 nM): 68.2 ± 18
relative cell number (sgRNA knockout: sgATF4, 100 nM): 94 ± 18
relative cell number [3]: 52.9 ± 11
relative cell number [4]: 9.62 ± 1.5
relative cell number (sgRNA knockout: sgATF6, 10 nM): 123 ± 23
relative cell number (sgRNA knockout: sgATF6, 100 nM): 84.8 ± 6.4
relative cell number [5]: 52.1 ± 4.1
relative cell number [6]: 10.3 ± 5.7
relative cell number (sgRNA knockout: sgATG7, 10 nM): 104 ± 7
relative cell number (sgRNA knockout: sgATG7, 100 nM): 83.9 ± 9.1
relative cell number [7]: 45 ± 7
relative cell number [8]: 10.1 ± 5.1
relative cell number (sgRNA knockout: sgERN1, 10 nM): 96.8 ± 5.6
relative cell number (sgRNA knockout: sgERN1, 100 nM): 71.1 ± 8.7
relative cell number [9]: 45.4 ± 5.9
relative cell number [10]: 12.7 ± 1.4
relative cell number (sgRNA knockout: sgHSF1, 10 nM): 88.4 ± 10
relative cell number (sgRNA knockout: sgHSF1, 100 nM): 97 ± 17
relative cell number [11]: 53.1 ± 6.2
relative cell number [12]: 8.28 ± 3.5
relative cell number (sgRNA knockout: sgHSF2, 10 nM): 81.3 ± 33
relative cell number (sgRNA knockout: sgHSF2, 100 nM): 90.3 ± 8
relative cell number [13]: 60.7 ± 6.4
relative cell number [14]: 12 ± 1.1
relative cell number (sgRNA knockout: sgKEAP1, 10 nM): 77.2 ± 34
relative cell number [15]: 70.4 ± 19
relative cell number [16]: 62.9 ± 12
relative cell number [17]: 10.2 ± 5.7
relative cell number [18]: 90.79 ± 0.13
relative cell number [19]: 93.4 ± 24
relative cell number [20]: 57.8 ± 23
relative cell number [21]: 9.84 ± 6.1
relative cell number [22]: 78.6 ± 17
relative cell number [23]: 62.5 ± 6
relative cell number [24]: 34.1 ± 0.97
relative cell number [25]: 11.2 ± 1.1
relative cell number (sgRNA knockout: sgXBP1, 10 nM): 91.9 ± 14
relative cell number (sgRNA knockout: sgXBP1, 100 nM): 89.6 ± 8.6
relative cell number [26]: 55.6 ± 5.2
relative cell number [27]: 7.84 ± 1.2

CN(C)/N=N/c1[nH]cnc1C(N)=O [Dacarbazine]
relative cell number (sgRNA knockout: sgATF3, 10 nM): 130 ± 11
relative cell number (sgRNA knockout: sgATF3, 100 nM): 115 ± 23
relative cell number [1]: 79.9 ± 0.99
relative cell number [2]: 82.9 ± 29
relative cell number (sgRNA knockout: sgATF4, 10 nM): 90.8 ± 3.4
relative cell number (sgRNA knockout: sgATF4, 100 nM): 85.7 ± 9.5
relative cell number [3]: 92.5 ± 18
relative cell number [4]: 86.3 ± 23
relative cell number (sgRNA knockout: sgATF6, 10 nM): 102 ± 19
relative cell number (sgRNA knockout: sgATF6, 100 nM): 113 ± 10
relative cell number [5]: 98.5 ± 14
relative cell number [6]: 75.2 ± 22
relative cell number (sgRNA knockout: sgATG7, 10 nM): 107 ± 6.5
relative cell number (sgRNA knockout: sgATG7, 100 nM): 94.7 ± 6.7
relative cell number [7]: 108 ± 0.16
relative cell number [8]: 80.8 ± 18
relative cell number (sgRNA knockout: sgERN1, 10 nM): 96.1 ± 6.5
relative cell number (sgRNA knockout: sgERN1, 100 nM): 94.6 ± 18
relative cell number [9]: 94.6 ± 24
relative cell number [10]: 84.7 ± 26
relative cell number (sgRNA knockout: sgHSF1, 10 nM): 69.8 ± 16
relative cell number (sgRNA knockout: sgHSF1, 100 nM): 84.8 ± 25
relative cell number [11]: 75.6 ± 20
relative cell number [12]: 74.9 ± 16
relative cell number (sgRNA knockout: sgHSF2, 10 nM): 94.5 ± 5
relative cell number (sgRNA knockout: sgHSF2, 100 nM): 96.1 ± 8.3
relative cell number [13]: 92.7 ± 13
relative cell number [14]: 69 ± 1.4
relative cell number (sgRNA knockout: sgKEAP1, 10 nM): 92.2 ± 10
relative cell number [15]: 115 ± 3.9
relative cell number [16]: 108 ± 24
relative cell number [17]: 86.5 ± 18
relative cell number [18]: 98.26 ± 0.45
relative cell number [19]: 107 ± 24
relative cell number [20]: 108 ± 14
relative cell number [21]: 83.3 ± 12
relative cell number [22]: 98.1 ± 34
relative cell number [23]: 82.3 ± 2.6
relative cell number [24]: 92.7 ± 7.3
relative cell number [25]: 80.8 ± 1.2
relative cell number (sgRNA knockout: sgXBP1, 10 nM): 100 ± 13
relative cell number (sgRNA knockout: sgXBP1, 100 nM): 84.4 ± 2.2
relative cell number [26]: 97 ± 7.9
relative cell number [27]: 92.7 ± 8.7

Cc1nc(Nc2ncc(C(=O)Nc3c(C)cccc3Cl)s2)cc(N2CCN(CCO)CC2)n1 [Dasatinib]
relative cell number (sgRNA knockout: sgATF3, 10 nM): 108 ± 5.7
relative cell number (sgRNA knockout: sgATF3, 100 nM): 43.1 ± 9.6
relative cell number [1]: 48.5 ± 14
relative cell number [2]: 20.6 ± 4.1
relative cell number (sgRNA knockout: sgATF4, 10 nM): 82 ± 7.4
relative cell number (sgRNA knockout: sgATF4, 100 nM): 53.6 ± 18
relative cell number [3]: 63 ± 3.4
relative cell number [4]: 20.3 ± 0.25
relative cell number (sgRNA knockout: sgATF6, 10 nM): 86.7 ± 11
relative cell number (sgRNA knockout: sgATF6, 100 nM): 48.2 ± 5.9
relative cell number [5]: 51.9 ± 5.9
relative cell number [6]: 20.5 ± 6.9
relative cell number (sgRNA knockout: sgATG7, 10 nM): 102.2 ± 0.98
relative cell number (sgRNA knockout: sgATG7, 100 nM): 41.5 ± 11
relative cell number [7]: 54.1 ± 1.4
relative cell number [8]: 16.2 ± 3.5
relative cell number (sgRNA knockout: sgERN1, 10 nM): 92.8 ± 8
relative cell number (sgRNA knockout: sgERN1, 100 nM): 45 ± 26
relative cell number [9]: 50.6 ± 13
relative cell number [10]: 22.1 ± 9.4
relative cell number (sgRNA knockout: sgHSF1, 10 nM): 108 ± 53
relative cell number (sgRNA knockout: sgHSF1, 100 nM): 46.4 ± 19
relative cell number [11]: 62.1 ± 6.3
relative cell number [12]: 13.6 ± 1.5
relative cell number (sgRNA knockout: sgHSF2, 10 nM): 88 ± 10
relative cell number (sgRNA knockout: sgHSF2, 100 nM): 43.4 ± 14
relative cell number [13]: 54 ± 20
relative cell number [14]: 23 ± 5.4
relative cell number (sgRNA knockout: sgKEAP1, 10 nM): 87.1 ± 22
relative cell number [15]: 39.8 ± 1
relative cell number [16]: 66.1 ± 7.6
relative cell number [17]: 14.3 ± 0.73
relative cell number [18]: 99.6 ± 2.5
relative cell number [19]: 39.7 ± 9.7
relative cell number [20]: 51.8 ± 3.6
relative cell number [21]: 16.9 ± 4
relative cell number [22]: 95.9 ± 2.2
relative cell number [23]: 44.1 ± 12
relative cell number [24]: 41.5 ± 12
relative cell number [25]: 19.6 ± 4.6
relative cell number (sgRNA knockout: sgXBP1, 10 nM): 86.92 ± 0.23
relative cell number (sgRNA knockout: sgXBP1, 100 nM): 36.6 ± 4.5
relative cell number [26]: 53 ± 18
relative cell number [27]: 15.3 ± 2.6
